## Results of single-concentration screens

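Growth of Mycobacterium tuberculosis over 3 days (7H9 medium with glucose and tyloxapol); the read-out is not stated. Compounds at 500 µM. The record gives no direction; compounds that gave an IC50 in retests scored well above the rest, so higher reads as more growth inhibition. About 18,000 compounds were tested under these conditions; 7.9% (about 1,400) showed 50% or more at least once.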

The filed quantity is “Percent Effect” (%). The record does not define 0% and 100%; most values in the screen are far below 50% and negative numbers occur (in some assays of this library far below -100). Compounds were drawn at random from those tested, without regard to their results.

Compound,Percent Effect
CC(C)(C)OC(=O)N1CCCOC(CN)C1 (stereo not drawn),29.3
CC(CN)c1nc(-c2ccccc2)no1 (stereo not drawn),55.6
CC(=O)N1CCN(C(=O)C2CCNCC2)CC1,8.96
Cc1cnn(CCNC(C)C(=O)Nc2cc(C)no2)c1 (stereo not drawn),20.42
Cc1cnccc1NC(=O)NCC(=O)N1CCCC1,16.28
Cc1csc(NC(=O)CCn2ccccc2=O)n1,31.16
CC(C)(CO)NC1CCS(=O)(=O)C1 (stereo not drawn),-3.983
NC(=O)CC(NC1CCCC1)C1CCOCC1 (stereo not drawn),-3.559
COc1c(F)cc(CN2CC[C@@H](N)[C@H](O)C2)cc1Cl,57.68
NCC(=O)N1Cc2ccccc2C1,3.95
Cn1ncnc1CCNC(=O)c1ccc(CN)cc1,12.85
CC(=O)NC1CCN(Cc2cnc(N(C)C)nc2)C1 (stereo not drawn),-1.404
O=C(NCC1CCNCC1)c1sccc1Br,7.232
NCCN1CCc2c(Cl)cccc2C1=O,38.96
CC(=O)Cn1cc(S(=O)(=O)N(C)C)ccc1=O,4.608
COc1ccccc1NC(=O)NCCn1ccnc1,9.317
CS(=O)(=O)NCc1ccnc(N2CCCCCC2)c1,10.16
O=C1NCCN(C(=O)c2ccc(Br)o2)C1c1cccs1 (stereo not drawn),25.18
CC(=O)c1c[nH]c(C(=O)NCc2ccccc2O)c1,0.6163
CNCCCC(=O)Nc1cccc(-n2ccnc2)c1,40.89
O=C(Nc1ccccc1I)C1COCCO1 (stereo not drawn),20.35
O=C(Cc1cccnc1)N1CCc2[nH]nc(CO)c2C1,-10.54
Cc1cc(NC(=O)c2cscc2C)nc(=O)[nH]1,-18.61
Cn1cc(S(=O)(=O)NCc2ccco2)cn1,-4.166
CC(=O)Nc1ccc(F)c(C(=O)OCC2CCCO2)c1 (stereo not drawn),32.66
O=C(CSc1cnn[nH]1)N1CCc2ccccc2C1,49.95
NCc1ccccc1CN1CCCC1CO (stereo not drawn),2.002
O=C(Cc1ccc(O)c(Cl)c1)NCC1CCOC1 (stereo not drawn),12.11
Cn1nccc1[C@H]1[C@H](N)CC(=O)N1C1CC1,10.98
C[C@H]1C[C@@H](CO)CCN1,0.1476
CC(C)(N)Cc1nc2ccccc2[nH]1,11.12
CC(C)C(O)CCNS(=O)(=O)c1ccccc1 (stereo not drawn),27.42
CC(NC(=O)CNc1ccccc1F)c1ccco1 (stereo not drawn),68.94
Cc1ccc(O)c(CNn2cnnc2)c1,7.221
O=C(OCc1cc(=O)n2ccsc2n1)c1ccccc1,-20.65
COCCCNC(=O)CN(C)c1ccc2nccn2n1,6.053
Cc1n[nH]c(C)c1NC(=O)CNC(C)C1CCOCC1 (stereo not drawn),-2.578
CC(C)N1CCC(CC(=O)NCCn2cccc2)CC1,-10.92
CC1(C)CN(CC(O)C(F)(F)F)CCO1 (stereo not drawn),-9.243
CCN(CCC(N)=O)Cc1cccc2c1OCO2,61.04
Cc1nn(C)c(C)c1CC(=O)N1CCCC(C(N)=O)C1 (stereo not drawn),1.146
Cc1nc(C)n(CC(=O)Nc2ccccc2)c(=O)c1C,11.06
CN(C(=O)c1cnccn1)C1(C#N)CCC1,9.783
CCCc1cc(C(=O)NC(C)c2nncn2C)no1 (stereo not drawn),5.576
CCn1cnnc1CNC(=O)C1CCC(=O)N1 (stereo not drawn),5.739
CNC(=O)C1CCCCN1CCCc1cccnc1 (stereo not drawn),-16.63
CNC(=O)CCN1CCC(=Cc2ccccc2)CC1,64.18
Cc1nn(C)c(N(C)C)c1CNCc1cnn(C)c1,4.895
COC(=O)C(C)N(Cc1ccccn1)C1CC1 (stereo not drawn),30.35

Repeated from the top, 3 entries:

Compound	Percent Effect
CC(C)(C)OC(=O)N1CCCOC(CN)C1 (stereo not drawn)	29.3
CC(CN)c1nc(-c2ccccc2)no1 (stereo not drawn)	55.6
CC(=O)N1CCN(C(=O)C2CCNCC2)CC1	8.96

From ChEMBL document CHEMBL3988442, “University of Dundee, Small-Polar-MMV Screening Library” (2021).